Record: PubChem BioAssay AID1508597 (Cure First, 2020)
In all, the deposit lists about 2,100 reagents; below is a part drawn at random. 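Calls flag viability under 80% in either arm, not effects specific to rucaparib; the reference for percent is not stated.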 Some reagents were tested in more than one well and are listed for each. The record does not give: the 100% reference.

Aim: 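Genes whose silencing sensitises or protects ovarian cancer cells against rucaparib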 (primary screen)
Cells: human ovarian carcinoma lines grown from tumours: OCI-P5x (papillary serous) and OCI-C5x (clear cell)
Reagent: siRNA pool against human genes, 1.25 pmol siRNA per well
Time to read-out: 72 h or 96 h, depending on the cell culture
Challenge: rucaparib 20 µM (about IC30) or vehicle, present until read-out
Detection: 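Luminescent ATP-based viability assay read 72 or 96 h after transfection, depending on culture, given as normalised percent viability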
Reading the numbers: viability, normalised: higher = more viable cells remaining
Hit rule: 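a well counts as a hit if its normalised viability is under 80 percent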
Calls: active = viability under 80%; inactive = viability 80% or more

| gene symbol | rucaparib or vehicle | cell line | technical replicate | viability, normalised (%) | call |
| --- | --- | --- | --- | --- | --- |
| CHEK1 (checkpoint kinase 1) | Rucaparib | OCI-C5x (clear cell) | 1 | 48.8 | active |
| CHEK1 (checkpoint kinase 1) | Rucaparib | OCI-C5x (clear cell) | 1 | 41.9 | active |
| CHEK1 (checkpoint kinase 1) | Rucaparib | OCI-C5x (clear cell) | 2 | 48.5 | active |
| CHEK1 (checkpoint kinase 1) | Rucaparib | OCI-C5x (clear cell) | 2 | 48.3 | active |
| CHEK1 (checkpoint kinase 1) | Rucaparib | OCI-C5x (clear cell) | 3 | 46.5 | active |
| CHEK1 (checkpoint kinase 1) | Rucaparib | OCI-C5x (clear cell) | 3 | 49.1 | active |
| CHEK1 (checkpoint kinase 1) | Rucaparib | OCI-P5x (serous) | 1 | 66.5 | active |
| CHEK1 (checkpoint kinase 1) | Rucaparib | OCI-P5x (serous) | 1 | 50.9 | active |
| CHEK1 (checkpoint kinase 1) | Rucaparib | OCI-P5x (serous) | 2 | 38.2 | active |
| CHEK1 (checkpoint kinase 1) | Rucaparib | OCI-P5x (serous) | 2 | 59.6 | active |
| CHEK1 (checkpoint kinase 1) | Rucaparib | OCI-P5x (serous) | 3 | 60.5 | active |
| CHEK1 (checkpoint kinase 1) | Rucaparib | OCI-P5x (serous) | 3 | 52.4 | active |
| CHEK1 (checkpoint kinase 1) | Vehicle | OCI-C5x (clear cell) | 1 | 41.7 | active |
| CHEK1 (checkpoint kinase 1) | Vehicle | OCI-C5x (clear cell) | 1 | 27.6 | active |
| CHEK1 (checkpoint kinase 1) | Vehicle | OCI-C5x (clear cell) | 2 | 29.5 | active |
| CHEK1 (checkpoint kinase 1) | Vehicle | OCI-C5x (clear cell) | 2 | 31.6 | active |
| CHEK1 (checkpoint kinase 1) | Vehicle | OCI-C5x (clear cell) | 3 | 39.1 | active |
| CHEK1 (checkpoint kinase 1) | Vehicle | OCI-C5x (clear cell) | 3 | 37.4 | active |
| CHEK1 (checkpoint kinase 1) | Vehicle | OCI-P5x (serous) | 1 | 45.9 | active |
| CHEK1 (checkpoint kinase 1) | Vehicle | OCI-P5x (serous) | 1 | 37.7 | active |
| CHEK1 (checkpoint kinase 1) | Vehicle | OCI-P5x (serous) | 2 | 43.6 | active |
| CHEK1 (checkpoint kinase 1) | Vehicle | OCI-P5x (serous) | 2 | 43.8 | active |
| CHEK1 (checkpoint kinase 1) | Vehicle | OCI-P5x (serous) | 3 | 45.9 | active |
| CHEK1 (checkpoint kinase 1) | Vehicle | OCI-P5x (serous) | 3 | 58.4 | active |
| KAT6A (lysine acetyltransferase 6A) | Rucaparib | OCI-C5x (clear cell) | 1 | 34.8 | active |
| KAT6A (lysine acetyltransferase 6A) | Rucaparib | OCI-C5x (clear cell) | 2 | 45.4 | active |
| KAT6A (lysine acetyltransferase 6A) | Rucaparib | OCI-C5x (clear cell) | 3 | 44.5 | active |
| KAT6A (lysine acetyltransferase 6A) | Rucaparib | OCI-P5x (serous) | 1 | 50 | active |
| KAT6A (lysine acetyltransferase 6A) | Rucaparib | OCI-P5x (serous) | 2 | 46.6 | active |
| KAT6A (lysine acetyltransferase 6A) | Rucaparib | OCI-P5x (serous) | 3 | 50.7 | active |
| KAT6A (lysine acetyltransferase 6A) | Vehicle | OCI-C5x (clear cell) | 1 | 37.3 | active |
| KAT6A (lysine acetyltransferase 6A) | Vehicle | OCI-C5x (clear cell) | 2 | 28.9 | active |
| KAT6A (lysine acetyltransferase 6A) | Vehicle | OCI-C5x (clear cell) | 3 | 43.3 | active |
| KAT6A (lysine acetyltransferase 6A) | Vehicle | OCI-P5x (serous) | 1 | 46.1 | active |
| KAT6A (lysine acetyltransferase 6A) | Vehicle | OCI-P5x (serous) | 2 | 53.8 | active |
| KAT6A (lysine acetyltransferase 6A) | Vehicle | OCI-P5x (serous) | 3 | 67.4 | active |
| PANK1 (pantothenate kinase 1) | Rucaparib | OCI-C5x (clear cell) | 1 | 63.3 | active |
| PANK1 (pantothenate kinase 1) | Rucaparib | OCI-C5x (clear cell) | 2 | 58.8 | active |
| PANK1 (pantothenate kinase 1) | Rucaparib | OCI-C5x (clear cell) | 3 | 47.3 | active |
| PANK1 (pantothenate kinase 1) | Rucaparib | OCI-P5x (serous) | 1 | 130 | inactive |
| PANK1 (pantothenate kinase 1) | Rucaparib | OCI-P5x (serous) | 2 | 143 | inactive |
| PANK1 (pantothenate kinase 1) | Rucaparib | OCI-P5x (serous) | 3 | 85 | inactive |
| PANK1 (pantothenate kinase 1) | Vehicle | OCI-C5x (clear cell) | 1 | 54.2 | active |
| PANK1 (pantothenate kinase 1) | Vehicle | OCI-C5x (clear cell) | 2 | 42.5 | active |
| PANK1 (pantothenate kinase 1) | Vehicle | OCI-C5x (clear cell) | 3 | 58.7 | active |
| PANK1 (pantothenate kinase 1) | Vehicle | OCI-P5x (serous) | 1 | 75.2 | active |
| PANK1 (pantothenate kinase 1) | Vehicle | OCI-P5x (serous) | 2 | 70.8 | active |
| PANK1 (pantothenate kinase 1) | Vehicle | OCI-P5x (serous) | 3 | 84.1 | inactive |
| CHMP4C (charged multivesicular body protein 4C) | Rucaparib | OCI-C5x (clear cell) | 1 | 62.9 | active |
| CHMP4C (charged multivesicular body protein 4C) | Rucaparib | OCI-C5x (clear cell) | 2 | 38.2 | active |
| CHMP4C (charged multivesicular body protein 4C) | Rucaparib | OCI-C5x (clear cell) | 3 | 50.8 | active |
| CHMP4C (charged multivesicular body protein 4C) | Rucaparib | OCI-P5x (serous) | 1 | 74.1 | active |
| CHMP4C (charged multivesicular body protein 4C) | Rucaparib | OCI-P5x (serous) | 2 | 71.2 | active |
| CHMP4C (charged multivesicular body protein 4C) | Rucaparib | OCI-P5x (serous) | 3 | 70.4 | active |
| CHMP4C (charged multivesicular body protein 4C) | Vehicle | OCI-C5x (clear cell) | 1 | 41.1 | active |
| CHMP4C (charged multivesicular body protein 4C) | Vehicle | OCI-C5x (clear cell) | 2 | 51.3 | active |
| CHMP4C (charged multivesicular body protein 4C) | Vehicle | OCI-C5x (clear cell) | 3 | 40 | active |
| CHMP4C (charged multivesicular body protein 4C) | Vehicle | OCI-P5x (serous) | 1 | 59.1 | active |
| CHMP4C (charged multivesicular body protein 4C) | Vehicle | OCI-P5x (serous) | 2 | 69.6 | active |
| CHMP4C (charged multivesicular body protein 4C) | Vehicle | OCI-P5x (serous) | 3 | 64.2 | active |
